# Earlier results as cited in patent publication US20220211620A1, “Pain Relieving Spray” (Animal Ethics Pty Ltd, priority 2019, published 2022).
# For at least one compound, name, drawing or mass did not settle the structure.
# Conditions: usually; rapid onset anaesthetic agents
structure (smiles),measurement,value
COC(=O)[C@H]1[C@@H](OC(=O)c2ccccc2)C[C@@H]2CC[C@H]1N2C [cocaine],onset of action,20 to 300 s
